No constants are given. Whether binding was seen depends on the method and setting. Binding seen in cells or lysates may run through a third protein. Some entries that bind do so weakly or less than the wild type. For some assays here: Where a sequence is shown, tags or fusion partners need not be part of it. Values belong to the binder of their own block, whether it stands above or below them.
Key:
myc-PRKCI [1] = target: T1, myc-PRKCI (UniProt P41743); test: co-IP; anti-myc precipitation of myc-PRKCI from Caco-2 cysts, control (PAR6B also in KRAS^G12V-expressing cells), endogenous partners by blot
T1 sequence: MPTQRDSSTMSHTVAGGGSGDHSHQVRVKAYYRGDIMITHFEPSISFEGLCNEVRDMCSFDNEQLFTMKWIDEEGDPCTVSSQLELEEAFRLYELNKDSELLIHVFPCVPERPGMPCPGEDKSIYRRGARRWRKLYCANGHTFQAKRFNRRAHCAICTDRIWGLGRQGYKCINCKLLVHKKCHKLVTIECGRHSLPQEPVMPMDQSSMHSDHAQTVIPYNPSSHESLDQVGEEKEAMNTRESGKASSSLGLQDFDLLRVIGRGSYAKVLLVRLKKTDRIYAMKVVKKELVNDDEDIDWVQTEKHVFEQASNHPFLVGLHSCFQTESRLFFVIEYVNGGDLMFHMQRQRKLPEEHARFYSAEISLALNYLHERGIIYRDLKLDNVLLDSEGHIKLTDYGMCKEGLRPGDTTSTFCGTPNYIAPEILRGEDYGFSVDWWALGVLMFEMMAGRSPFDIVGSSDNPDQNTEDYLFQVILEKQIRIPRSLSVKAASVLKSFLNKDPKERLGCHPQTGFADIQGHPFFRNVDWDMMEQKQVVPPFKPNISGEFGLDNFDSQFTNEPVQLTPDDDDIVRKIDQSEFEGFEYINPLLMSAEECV

Chains of the proteins cited; added tags and fusions are not shown.
UniProt Q8TEW0: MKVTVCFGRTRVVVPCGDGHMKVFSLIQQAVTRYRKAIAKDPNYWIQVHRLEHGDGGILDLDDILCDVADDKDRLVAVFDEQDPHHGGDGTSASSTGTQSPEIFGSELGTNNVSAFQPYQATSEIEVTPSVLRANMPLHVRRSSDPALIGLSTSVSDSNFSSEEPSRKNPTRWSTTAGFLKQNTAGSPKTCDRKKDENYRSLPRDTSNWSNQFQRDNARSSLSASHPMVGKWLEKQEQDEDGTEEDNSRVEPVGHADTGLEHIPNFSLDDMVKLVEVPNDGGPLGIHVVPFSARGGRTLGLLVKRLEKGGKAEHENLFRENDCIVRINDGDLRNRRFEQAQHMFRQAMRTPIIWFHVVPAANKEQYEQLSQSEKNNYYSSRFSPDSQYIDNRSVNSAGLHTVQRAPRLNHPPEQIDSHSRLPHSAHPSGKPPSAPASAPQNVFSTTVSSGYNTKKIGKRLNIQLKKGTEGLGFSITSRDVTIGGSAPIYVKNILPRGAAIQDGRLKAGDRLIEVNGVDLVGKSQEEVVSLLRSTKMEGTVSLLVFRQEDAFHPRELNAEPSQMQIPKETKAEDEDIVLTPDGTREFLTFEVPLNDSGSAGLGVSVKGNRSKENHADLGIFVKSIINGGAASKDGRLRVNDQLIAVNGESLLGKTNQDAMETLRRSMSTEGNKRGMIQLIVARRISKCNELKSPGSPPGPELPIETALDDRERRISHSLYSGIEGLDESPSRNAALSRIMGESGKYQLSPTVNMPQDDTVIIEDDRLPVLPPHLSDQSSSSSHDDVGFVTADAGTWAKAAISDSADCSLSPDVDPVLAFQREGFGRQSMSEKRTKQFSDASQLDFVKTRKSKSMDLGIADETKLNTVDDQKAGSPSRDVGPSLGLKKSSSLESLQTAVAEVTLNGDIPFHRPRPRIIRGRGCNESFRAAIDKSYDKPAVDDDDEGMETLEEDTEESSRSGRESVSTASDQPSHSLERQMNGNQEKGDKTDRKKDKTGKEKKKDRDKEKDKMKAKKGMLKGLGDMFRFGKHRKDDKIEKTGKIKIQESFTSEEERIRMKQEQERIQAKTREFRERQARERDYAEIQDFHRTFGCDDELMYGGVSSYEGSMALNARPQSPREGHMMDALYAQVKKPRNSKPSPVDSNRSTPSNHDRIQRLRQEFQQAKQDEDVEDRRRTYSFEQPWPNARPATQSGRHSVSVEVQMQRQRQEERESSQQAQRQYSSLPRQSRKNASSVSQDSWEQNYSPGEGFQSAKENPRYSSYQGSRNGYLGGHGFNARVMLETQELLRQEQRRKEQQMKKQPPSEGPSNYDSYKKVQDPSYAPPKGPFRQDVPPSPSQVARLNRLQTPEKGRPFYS

myc-tagged PAR6B = target: T2, myc-tagged PAR6B (UniProt Q9BYG5); test: co-IP; anti-myc precipitation after transient transfection in HEK293 cells, PTPN14 detected with anti-V5; NP40 buffer
T2 sequence: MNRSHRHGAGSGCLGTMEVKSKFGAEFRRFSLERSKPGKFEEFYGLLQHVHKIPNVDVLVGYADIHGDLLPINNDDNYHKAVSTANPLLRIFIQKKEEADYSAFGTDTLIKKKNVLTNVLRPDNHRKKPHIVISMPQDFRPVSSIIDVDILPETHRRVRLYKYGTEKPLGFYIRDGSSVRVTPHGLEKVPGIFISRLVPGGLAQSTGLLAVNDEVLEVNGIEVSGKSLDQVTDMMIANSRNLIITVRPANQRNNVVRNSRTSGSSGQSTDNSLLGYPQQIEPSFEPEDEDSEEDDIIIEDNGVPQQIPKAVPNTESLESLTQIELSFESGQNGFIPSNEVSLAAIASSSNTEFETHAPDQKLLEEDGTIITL

myc-PRKCI [2] = target: T1, myc-PRKCI; test: as above
[3] = target: PARD3 (human (endogenous in Caco-2)) (UniProt Q8TEW0); test: co-IP; endogenous proteins of 2D and 3D Caco-2 cells; anti-PAR6B (Fig. 4B), antibody of Supplemental Fig. S3B not told; NP40 buffer (150 mM NaCl, 1% NP-40, 50 mM Tris-HCl pH 8.0)

B1: PAR6B (protein, UniProt Q9BYG5 1-372)
chain: T2 sequence
binding (myc-PRKCI [1]): binds

B4: PARD3B (protein, UniProt Q8TEW8 1-1205)
chain: MKVTVCFGRTGIVVPCKEGQLRVGELTQQALQRYLKTREKGPGYWVKIHHLEYTDGGILDPDDVLADVVEDKDKLIAVFEEQEPLHKIESPSGNPADRQSPDAFETEVAAQLAAFKPIGGEIEVTPSALKLGTPLLVRRSSDPVPGPPADTQPSASHPGGQSLKLVVPDSTQNLEDREVLNGVQTELLTSPRTKDTLSDMTRTVEISGEGGPLGIHVVPFFSSLSGRILGLFIRGIEDNSRSKREGLFHENECIVKINNVDLVDKTFAQAQDVFRQAMKSPSVLLHVLPPQNREQYEKSVIGSLNIFGNNDGVLKTKVPPPVHGKSGLKTANLTGTDSPETDASASLQQNKSPRVPRLGGKPSSPSLSPLMGFGSNKNAKKIKIDLKKGPEGLGFTVVTRDSSIHGPGPIFVKNILPKGAAIKDGRLQSGDRILEVNGRDVTGRTQEELVAMLRSTKQGETASLVIARQEGHFLPRELKGEPDCCALSLETSEQLTFEIPLNDSGSAGLGVSLKGNKSRETGTDLGIFIKSIIHGGAAFKDGRLRMNDQLIAVNGESLLGKSNHEAMETLRRSMSMEGNIRGMIQLVILRRPERPMEDPAECGAFSKPCFENCQNAVTTSRRNDNSILHPLGTCSPQDKQKGLLLPNDGWAESEVPPSPTPHSALGLGLEDYSHSSGVDSAVYFPDQHINFRSVTPARQPESINLKASKSMDLVPDESKVHSLAGQKSESPSKDFGPTLGLKKSSSLESLQTAVAEVRKNDLPFHRPRPHMVRGRGCNESFRAAIDKSYDGPEEIEADGLSDKSSHSGQGALNCESAPQGNSELEDMENKARKVKKTKEKEKKKEKGKLKVKEKKRKEENEDPERKIKKKGFGAMLRFGKKKEDKGGKAEQKGTLKHGGLREEELEKMKEERERIGAKHQELREKQARGLLDYATGAIGSVYDMDDDEMDPNYARVNHFREPCTSANVFRSPSPPRAGPFGYPRDGHPLSPERDHLEGLYAKVNKPYHPLVPADSGRPTGGSTDRIQKLRKEYYQARREGFPLYEDDEGRARPSEYDLLWVPGRGPDGNAHNLRFEGMERQYASLPRGGPADPVDYLPAAPRGLYKERELPYYPGAHPMHPPKGSYPRPTELRVADLRYPQHYPPPPAPQHKGPFRQDVPPSPPQHQRMPAYQETGRPGPRGGSPDQYPYRTQDSRQKNPMTAAV
binding [3]: no binding

Next, values leading:

binding (myc-tagged PAR6B): binds
binding (myc-PRKCI [2]): binds
B2: PTPN14-V5 (protein, UniProt Q15678 1-1187)
chain: MPFGLKLRRTRRYNVLSKNCFVTRIRLLDSNVIECTLSVESTGQECLEAVAQRLELRETHYFGLWFLSKSQQARWVELEKPLKKHLDKFANEPLLFFGVMFYVPNVSWLQQEATRYQYYLQVKKDVLEGRLRCTLDQVIRLAGLAVQADFGDYNQFDSQDFLREYVLFPMDLALEEAVLEELTQKVAQEHKAHSGILPAEAELMYINEVERLDGFGQEIFPVKDNHGNCVHLGIFFMGIFVRNRIGRQAVIYRWNDMGNITHNKSTILVELINKEETALFHTDDIENAKYISRLFATRHKFYKQNKICTEQSNSPPPIRRQPTWSRSSLPRQQPYILPPVHVQCGEHYSETHTSQDSIFHGNEEALYCNSHNSLDLNYLNGTVTNGSVCSVHSVNSLNCSQSFIQASPVSSNLSIPGSDIMRADYIPSHRHSAIIVPSYRPTPDYETVMRQMKRGILHTDSQSQSLRNLNIINTHAYNQPEDLVYSQPEMRERHPYTVPYGPQGVYSNKLVSPSDQRNPKNNVVPSKPGASAISHTVSTPELANMQLQGSHNYSTAHMLKNYLFRPPPPYPRPRPATSTPDLASHRHKYVSGSSPDLVTRKVQLSVKTFQEDSSPVVHQSLQEVSEPLTATKHHGTVNKRHSLEVMNSMVRGMEAMTLKSLHLPMARRNTLREQGPPEEGSGSHEVPQLPQYHHKKTFSDATMLIHSSESEEEEEEAPESVPQIPMLREKMEYSAQLQAALARIPNKPPPEYPGPRKSVSNGALRQDQASLPPAMARARVLRHGPAKAISMSRTDPPAVNGASLGPSISEPDLTSVKERVKKEPVKERPVSEMFSLEDSIIEREMMIRNLEKQKMAGLEAQKRPLMLAALNGLSVARVSGREENRVDATRVPMDERFRTLKKKLEEGMVFTEYEQIPKKKANGIFSTAALPENAERSRIREVVPYEENRVELIPTKENNTGYINASHIKVVVGGAEWHYIATQGPLPHTCHDFWQMVWEQGVNVIAMVTAEEEGGRTKSHRYWPKLGSKHSSATYGKFKVTTKFRTDSVCYATTGLKVKHLLSGQERTVWHLQYTDWPDHGCPEDVQGFLSYLEEIQSVRRHTNSMLEGTKNRHPPIVVHCSAGVGRTGVLILSELMIYCLEHNEKVEVPMMLRLLREQRMFMIQTIAQYKFVYQVLIQFLQNSRLI

binding (myc-PRKCI [1]): binds
B3: PTPN14 (protein, UniProt Q15678 1-1187)
chain: B2 chain

Source: paper PMC8610992
